Earlier results as cited in paper PMC7520419 (The AAPS Journal, 2020).
Like-named read-outs stand apart in the source and are kept apart here.

Settings: ref published clinical data (Table I), cited from earlier work
Note: test concentration or dose not given here.

| Structure (SMILES) | Observed AUC(0-inf) Fasted (Model 1) [ng·h/mL] | Observed Cmax Fasted (Model 1) [ng/mL] | Observed AUC(0-inf) Fed (Model 1) [ng·h/mL] | Observed Cmax Fed (Model 1) [ng/mL] | Observed AUC(0-inf) Fasted (Model 2) [ng·h/mL] | Observed Cmax Fasted (Model 2) [ng/mL] | Observed AUC(0-inf) Fed (Model 2) [ng·h/mL] | Observed Cmax Fed (Model 2) [ng/mL] |
| --- | --- | --- | --- | --- | --- | --- | --- | --- |
| NS(=O)(=O)c1cc(C(=O)O)c(NCc2ccco2)cc1Cl [Furosemide] | 2090 | 754 | 1670 | 428 | 1940 | 754 | 1590 | 428 |
| CCCCc1oc2ccccc2c1C(=O)c1cc(I)c(OCCN(CC)CC)c(I)c1 [Amiodarone] | 14000 | 380 | 33000 | 1400 | 14000 | 380 | 33000 | 1400 |
